This assay is described as follows: qHTS Assay for Lipid Storage Modulators in Drosophila S3 Cells.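 On cell number change: cells counted by Cell Tracker Red CMTPX staining in the red channel.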 As to conditions: BODIPY lipid droplet fluorescence, 18-24 h; for cell number change: measured here: cell count max response, cells fed with added oleic acid. Put shortly: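 Drosophila S3 cells got compounds at several concentrations plus oleic acid (400 uM solution). Laser-scanning cytometry with 488 nm excitation read lipid droplets at 500-530 nm and cells at 575-640 nm. Percent activity was relative to 20 uM Triacsin C.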

[1] abbreviates: measured here: lipid fluorescence (Fed channel) AC50, cells fed with added oleic acid.
Where [2] appears, read: measured here: cell number channel AC50, cells fed with added oleic acid.

Experimental findings from PubChem BioAssay AID2685 (National Center for Advancing Translational Sciences (NCATS), 2010) are described below.

Some of the results follow. Shown are side measurements of this screen, not its main read-out; they come without a call. The list favours compounds with an active or inconclusive main result. Potencies come from curve fits of mixed quality, noted in brackets.

Take `CCCCN1C(Nc2ccccc2)=NC[C@@H]1CC(C)C`: the cell number change was -23.1%. Under setting [1], the AC50 (as a rule, the concentration giving half of the maximal activity seen) was 0.184 µM [rising, full curve]. Consider `COc1ccc(COc2ccc(C3C(S(=O)(=O)c4ccccc4)CON3C)cc2OC)cc1` (stereo not given), for which the cell number change is -19.4%. Besides, the half-maximal activity concentration (AC50) under setting [1] was 25.9 µM [falling, single point]. Consider `Nc1c(C(=O)NCCc2ccc(Cl)cc2)sc2ccc(S(=O)(=O)N3CCCCC3)cc12`, for which the cell number change is -14.5%. Moreover, under setting [1], the concentration at half-maximal activity (AC50) was 29.1 µM [falling, single point]. Turning to `C[C@]12CCC(=O)C=C1CC[C@@H]1[C@@H]2CC[C@@]2(C)[C@H]1CC[C@]2(O)C(=O)CO`, the cell number change came to 0.0967%. For the compound `O=C(CNS(=O)(=O)c1ccc(Br)s1)N1CCN(c2ccc(F)cc2)CC1`, the cell number change was found to be 10.4%.

Regarding `CCOc1ccc(C(=O)Nc2cc(-c3nc4ccccc4[nH]3)ccc2C)cc1[N+](=O)[O-]`, the cell number change was -24.4%. For the compound `CCn1c(-c2ccccc2Cl)nn(CC(=O)Nc2ccccc2C)c1=S`, the cell number change amounted to 12.6%. Also, the half-maximal activity concentration (AC50) under setting [2] was 2.91 µM [rising, single point]. The concentration at half-maximal activity (AC50) under setting [1] is 6.51 µM [rising, single point]. In the case of `CCOC(=O)c1sc(N2C(=O)C(O)=C(C(=O)c3ccco3)C2c2ccc(C)o2)nc1C` (stereo not given), the cell number change was determined as 21.7%. Further, the AC50 under setting [1] was 6.51 µM [rising, single point]. In the case of `Cc1sc2ncnc(N/N=C/c3ccc(O)cc3)c2c1C`, the AC50 under setting [1] was 11.6 µM [falling, partial curve, poor fit].

For the compound `O=C1NC(=O)/C(=C\c2ccc(Br)o2)S1`, the cell number change was -31.9%. For the compound `O=C(CNS(=O)(=O)c1c(Cl)cccc1Cl)OCc1csc(-c2ccccc2)n1`, the cell number change amounted to 7.83%. Besides, the concentration at half-maximal activity (AC50) under setting [1] is 16.4 µM [rising, partial curve]. With `CCC(C)/C(C)=N/Nc1ccc(S(N)(=O)=O)cc1[N+](=O)[O-]` (stereo not given), the cell number change was found to be 10%.

For the compound `Cc1ccccc1NC(=S)N/N=C/C(C)c1ccccc1` (stereo not given), the cell number change stood at 28.9%. Turning to `O=S(=O)(c1cccc(-n2cnnn2)c1)N1CCOCC1`, the cell number change was -12.9%. The AC50 under setting [1] is 13 µM [falling, partial curve]. Consider `O=C(C[N+]1(CC#Cc2ccccc2)CCOCC1)c1ccccc1`, for which the cell number change is 134%. In addition, the AC50 under setting [2] was 23.1 µM [rising, single point]. Take `C[n+]1cccc(C(=O)NNC(=O)C23CC4CC(CC(C4)C2)C3)c1`: the cell number change was -0.223%. Moreover, the half-maximal activity concentration (AC50) under setting [2] was 3.66 µM [falling, single point]. In addition, the AC50 under setting [1] is 6.51 µM [falling, single point]. `COC(=O)C(=C/C=C/c1cccnc1)C(=O)OC`: the cell number change is -14.8%. Further, under setting [1], the AC50 is 29.1 µM [falling, single point].

Take `O=C(Nc1cccc(S(=O)(=O)NC2=NCCCCC2)c1)c1cc(-c2ccccc2Cl)nc2ccccc12`: the cell number change was -21.2%.

Turning to `COC(=O)c1cccc(NC(=O)CN(c2ccc3c(c2)OCO3)S(C)(=O)=O)c1C`, the cell number change was -22.5%. Also, the AC50 under setting [1] was 0.146 µM [rising, full curve, poor fit]. On to `Oc1ccccc1CNc1cnc2ccccc2c1`, for which the cell number change was -30%. Besides, the AC50 under setting [1] is 23.1 µM [falling, single point]. Turning to `CN(Cc1ccccc1)C(NC(=O)c1ccco1)C(Cl)(Cl)Cl` (stereo not given), the cell number change is -5.81%. Besides, the AC50 under setting [2] is 0.00461 µM [falling, full curve, poor fit]. With `CCOC(=O)C1CCCN(S(=O)(=O)CCNC(=O)c2ccc(F)cc2)C1` (stereo not given), the cell number change is -37.5%. The concentration at half-maximal activity (AC50) under setting [2] was 0.0731 µM [falling, full curve, poor fit]. The half-maximal activity concentration (AC50) under setting [1] is 0.58 µM [falling, single point].

Regarding `COc1ccc(S(=O)(=O)Nc2ccccc2C(=O)NCc2ccco2)cc1`, the cell number change worked out at 60.3%. Further, the AC50 under setting [2] was 29.1 µM [rising, single point]. Besides, the AC50 under setting [1] was 0.517 µM [falling, single point]. For the compound `CCOC(=O)N1CCN(C(=O)c2ccc(N(Cc3ccc(C)cc3)S(C)(=O)=O)cc2)CC1`, the cell number change came to 33.1%. The AC50 under setting [2] was 6.51 µM [rising, partial curve, poor fit]. For the same compound, the half-maximal activity concentration (AC50) under setting [1] was 3.66 µM [rising, single point].

With `Cn1c2cc(Br)sc2c2cnn(Cc3c(F)cccc3F)c(=O)c21`, the cell number change was 41.8%. Moreover, the AC50 under setting [2] is 0.00411 µM [rising, full curve, poor fit]. Moreover, the AC50 under setting [1] was 0.0517 µM [rising, full curve]. Take `Cc1ccc(N(C)C(=O)N2CCN(S(=O)(=O)c3ccc(C)c(C)c3)CC2)cc1`: under setting [1], the AC50 was 3.66 µM [rising, partial curve]. `COc1ccc(C(=O)NC2CC2)cc1OC1CCN(Cc2ccc(F)cc2F)CC1`: the cell number change is -17.8%. In addition, under setting [2], the AC50 is 0.326 µM [rising, single point]. On to `O=C(CCCCn1c(=O)[nH]c2ccccc2c1=O)NCCc1c[nH]c2ccccc12`, for which the cell number change turned out to be 8.78%. For the same compound, the AC50 under setting [1] was 0.731 µM [rising, full curve, poor fit]. On to `O=C(NC(=S)Nc1ccc(Cc2ccncc2)cc1)c1ccccc1`, for which the cell number change came to 9.36%. The AC50 under setting [1] was 3.26 µM [rising, full curve]. Consider `Cc1cc(C(=O)NCCCc2ccccc2)no1`, for which the cell number change is 0.703%. Besides, the AC50 under setting [1] is 10.3 µM [rising, partial curve]. As to `CC1(C)Oc2ccc(C(=O)N3CCc4ccccc43)cc2N(CC(=O)N2CCCC2)C1=O`, the cell number change turned out to be 30.1%. Besides, the AC50 under setting [2] is 5.8 µM [rising, full curve, poor fit]. Consider `N#CC1(NC(=O)CN2C(=O)NC(c3ccccc3)(c3ccccc3)C2=O)CCCC1`, for which the cell number change is -8.27%. For the same compound, under setting [1], the concentration at half-maximal activity (AC50) is 29.1 µM [rising, single point].

Take `COCCNC(=O)c1ccc2c3n(nc2c1)-c1ccc(Cl)cc1CO3`: the cell number change came to 14.8%. Further, under setting [1], the AC50 is 0.517 µM [rising, full curve, poor fit].

As for `Cc1ccc(S(=O)(=O)NCc2ccccc2)cc1`, the cell number change is -28.8%. Moreover, under setting [1], the AC50 was 6.51 µM [falling, single point].

For `COc1ccc2[nH]c(=O)c(CN(Cc3nnnn3Cc3ccc(F)cc3)CC3CCCO3)cc2c1` (stereo not given), the cell number change was determined as 9.93%. The AC50 under setting [1] was 6.51 µM [rising, single point]. For `CC(C)c1ccc(C2(C)NC(=O)N(CC(=O)NC3(C#N)CCCC3)C2=O)cc1` (stereo not given), the cell number change was -4.13%. For the same compound, under setting [1], the concentration at half-maximal activity (AC50) is 0.206 µM [falling, partial curve, poor fit]. On to `CN(C(=O)c1ccc(NC(=O)Cc2ccc(NC(=O)C3CCCN(C(=O)C4CCCC4)C3)cc2)cc1)C1CC1` (stereo not given), for which the cell number change was -22%. The AC50 under setting [1] is 0.00461 µM [rising, full curve, poor fit]. With `O=C(Nc1cc([N+](=O)[O-])ccc1F)c1cccs1`, the cell number change came to 20.9%. The AC50 under setting [1] is 20.6 µM [rising, partial curve, poor fit].

As for `Cc1ccc(-c2nc3ccccc3s2)cc1NC(=S)NC(=O)/C=C/c1ccco1`, the cell number change was determined as 9.76%. In addition, the concentration at half-maximal activity (AC50) under setting [2] was 3.66 µM [falling, single point]. Consider `CC(C)c1ccc(NNC(=O)C2CCC2)cc1`, for which the cell number change amounted to 26.3%. Besides, the AC50 under setting [2] is 0.82 µM [falling, single point]. With `Nc1cc(N2CCOCC2)c(Cl)cc1[N+](=O)[O-]`, the cell number change was -21.1%. The AC50 under setting [1] is 4.61 µM [rising, single point]. `COc1ccc(S(=O)(=O)N(C)CC(=O)NC2CC2)cc1`: the cell number change is -5.54%. Under setting [1], the AC50 is 2.59 µM [falling, full curve, poor fit]. `CCC(Sc1nnc(C)c(=O)[nH]1)C(=O)Nc1cccc2ccccc12` (stereo not given): the cell number change turned out to be 1.25%. The AC50 under setting [1] was 1.16 µM [falling, single point]. For the compound `Cc1cc(C)nc(OC(=O)c2c(Cl)cc(Cl)cc2Cl)n1`, the AC50 under setting [1] was 18.4 µM [rising, partial curve].

Take `O=C(CCC(=O)N1CCN(S(=O)(=O)c2ccccc2Cl)CC1)c1ccccc1`: the cell number change is 13.1%. Moreover, under setting [1], the AC50 was 2.06 µM [rising, partial curve]. `COC(=O)c1ccccc1NC(=O)CS(=O)(=O)Cc1nc(-c2ccc(C)cc2)oc1C`: the cell number change worked out at 10.8%. In addition, the AC50 under setting [1] is 6.51 µM [rising, partial curve, poor fit]. On to `Cc1cc(NC(=O)c2cccnc2)ccc1NC(=O)c1cc2ccccc2o1`, for which the cell number change came out at 6.87%. The AC50 under setting [1] is 29.1 µM [rising, single point].

Take `CCN(CC)CC(=O)Nc1ccc([N+](=O)[O-])cc1`: the cell number change is -18.2%. Further, the AC50 under setting [1] was 4.61 µM [falling, single point]. Regarding `Cc1ccc(NC(=O)Cn2c(=O)cnc3ccccc32)cc1S(=O)(=O)N1CCOCC1`, the cell number change is 41.5%. Moreover, the AC50 under setting [2] is 25.9 µM [rising, partial curve, poor fit].

As for `CC(C)C(NS(=O)(=O)c1cccs1)C(=O)Nc1nc(C(C)(C)C)cs1` (stereo not given), the cell number change was -6.03%.

In the case of `COc1ccc2c(c1)C(NS(=O)(=O)OCC(Cl)(Cl)Cl)CCC2` (stereo not given), the cell number change was 7.78%.

On to `c1cncc(-c2nnc(SCc3nc4ccccc4[nH]3)o2)c1`, for which the AC50 by setting is: under setting [2], 0.13 µM [rising, full curve, poor fit]; under setting [1], 0.13 µM [rising, full curve, poor fit]. For the compound `COC(=O)c1cccc(NC(=O)CSc2nnc(COc3ccc(C#N)cc3)n2-c2ccccc2)c1`, the cell number change was determined as 31.2%. Also, the AC50 under setting [2] is 20.6 µM [rising, single point]. `Cc1c(C(=O)N2CCC(C)CC2)oc2ccc(S(=O)(=O)N3CCC4(CC3)OCCO4)cc12`: the cell number change turned out to be 23.2%. Further, under setting [1], the half-maximal activity concentration (AC50) is 0.116 µM [falling, full curve, poor fit]. As to `COc1ccc(N(Cc2cc(=O)[nH]c3ccccc23)C(=O)CCl)cc1`, the cell number change is -2.05%. Also, under setting [1], the AC50 was 32.6 µM [falling, single point]. `CC(=O)N(CN1C(=O)C2C3C=CC(C3)C2C1=O)c1cccc(Cl)c1` (stereo not given): the cell number change was determined as 17.5%. Further, the AC50 under setting [1] was 23.1 µM [rising, single point]. Consider `O=C(O)CC1S/C(=N/N=C/C2CC=CCC2)NC1=O` (stereo not given), for which the cell number change is -35.3%. Further, under setting [2], the AC50 was 0.82 µM [falling, full curve]. In addition, under setting [1], the AC50 is 14.6 µM [falling, partial curve]. Regarding `CC(=O)c1cccc(NC(=O)c2cc(S(=O)(=O)N3CCOCC3)cs2)c1`, the cell number change is -45.6%. The concentration at half-maximal activity (AC50) under setting [2] was 1.84 µM [falling, partial curve]. Besides, under setting [1], the AC50 was 11.6 µM [falling, partial curve]. Regarding `COc1cc(/C=C/C(=O)/C=C(O)/C=C/c2ccc(O)c(OC)c2)ccc1O`, the cell number change is -64.3%. In addition, the concentration at half-maximal activity (AC50) under setting [2] was 14.6 µM [falling, partial curve]. In addition, the half-maximal activity concentration (AC50) under setting [1] is 20.6 µM [falling, single point].
